# No constants are given. Whether binding was seen depends on the method and setting. In cells and extracts the contact can be indirect. A yes stands for co-enrichment or nearness to the bait. Other partners may have been found.
# Sequences of proteins named here, by UniProt entry; tags and fusion partners are left off.
# UniProt P03496: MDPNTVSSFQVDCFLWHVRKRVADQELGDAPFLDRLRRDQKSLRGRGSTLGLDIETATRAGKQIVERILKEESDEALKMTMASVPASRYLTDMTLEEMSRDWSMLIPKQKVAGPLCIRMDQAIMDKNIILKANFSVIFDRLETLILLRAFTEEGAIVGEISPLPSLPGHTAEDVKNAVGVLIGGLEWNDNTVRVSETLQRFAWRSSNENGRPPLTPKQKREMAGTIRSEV
# B1: U3 small nucleolar RNA-associated protein 15 homolog (protein, UniProt Q8TED0 1-518)
# chain: MAGYKPVAIQTYPILGEKITQDTLYWNNYKTPVQIKEFGAVSKVDFSPQPPYNYAVTASSRIHIYGRYSQEPIKTFSRFKDTAYCATFRQDGRLLVAGSEDGGVQLFDISGRAPLRQFEGHTKAVHTVDFTADKYHVVSGADDYTVKLWDIPNSKEILTFKEHSDYVRCGCASKLNPDLFITGSYDHTVKMFDARTSESVLSVEHGQPVESVLLFPSGGLLVSAGGRYVKVWDMLKGGQLLVSLKNHHKTVTCLCLSSSGQRLLSGSLDRKVKVYSTTSYKVVHSFDYAASILSLALAHEDETIVVGMTNGILSVKHRKSEAKKESLPRRRRPAYRTFIKGKNYMKQRDDILINRPAKKHLELYDRDLKHFRISKALDRVLDPTCTIKTPEITVSIIKELNRRGVLANALAGRDEKEISHVLNFLIRNLSQPRFAPVLINAAEIIIDIYLPVIGQSPVVDKKFLLLQGLVEKEIDYQRELLETLGMMDMLFATMRRKEGTSVLEHTSDGFPENKKIES
# B2: U3 small nucleolar RNA-associated protein 18 homolog (protein, UniProt Q9Y5J1 1-556)
# chain: MPPERRRRMKLDRRTGAKPKRKPGMRPDWKAGAGPGGPPQKPAPSSQRKPPARPSAAAAAIAVAAAEEERRLRQRNRLRLEEDKPAVERCLEELVFGDVENDEDALLRRLRGPRVQEHEDSGDSEVENEAKGNFPPQKKPVWVDEEDEDEEMVDMMNNRFRKDMMKNASESKLSKDNLKKRLKEEFQHAMGGVPAWAETTKRKTSSDDESEEDEDDLLQRTGNFISTSTSLPRGILKMKNCQHANAERPTVARISSVQFHPGAQIVMVAGLDNAVSLFQVDGKTNPKIQSIYLERFPIFKACFSANGEEVLATSTHSKVLYVYDMLAGKLIPVHQVRGLKEKIVRSFEVSPDGSFLLINGIAGYLHLLAMKTKELIGSMKINGRVAASTFSSDSKKVYASSGDGEVYVWDVNSRKCLNRFVDEGSLYGLSIATSRNGQYVACGSNCGVVNIYNQDSCLQETNPKPIKAIMNLVTGVTSLTFNPTTEILAIASEKMKEAVRLVHLPSCTVFSNFPVIKNKNISHVHTMDFSPRSGYFALGNEKGKALMYRLHHYSDF
# B3: U3 small nucleolar RNA-associated protein 6 homolog (protein, UniProt Q9NYH9 1-597)
# chain: MAEIIQERIEDRLPELEQLERIGLFSHAEIKAIIKKASDLEYKIQRRTLFKEDFINYVQYEINLLELIQRRRTRIGYSFKKDEIENSIVHRVQGVFQRASAKWKDDVQLWLSYVAFCKKWATKTRLSKVFSAMLAIHSNKPALWIMAAKWEMEDRLSSESARQLFLRALRFHPECPKLYKEYFRMELMHAEKLRKEKEEFEKASMDVENPDYSEEILKGELAWIIYKNSVSIIKGAEFHVSLLSIAQLFDFAKDLQKEIYDDLQALHTDDPLTWDYVARRELEIESQTEEQPTTKQAKAVEVGRKEERCCAVYEEAVKTLPTEAMWKCYITFCLERFTKKSNSGFLRGKRLERTMTVFRKAHELKLLSECQYKQLSVSLLCYNFLREALEVAVAGTELFRDSGTMWQLKLQVLIESKSPDIAMLFEEAFVHLKPQVCLPLWISWAEWSEGAKSQEDTEAVFKKALLAVIGADSVTLKNKYLDWAYRSGGYKKARAVFKSLQESRPFSVDFFRKMIQFEKEQESCNMANIREYYERALREFGSADSDLWMDYMKEELNHPLGRPENCGQIYWRAMKMLQGESAEAFVAKHAMHQTGHL
# B4: WD repeat-containing protein 3 (protein, UniProt Q9UNX4 1-943)
# chain: MGLTKQYLRYVASAVFGVIGSQKGNIVFVTLRGEKGRYVAVPACEHVFIWDLRKGEKILILQGLKQEVTCLCPSPDGLHLAVGYEDGSIRIFSLLSGEGNVTFNGHKAAITTLKYDQLGGRLASGSKDTDIIVWDVINESGLYRLKGHKDAITQALFLREKNLLVTSGKDTMVKWWDLDTQHCFKTMVGHRTEVWGLVLLSEEKRLITGASDSELRVWDIAYLQEIEDPEEPDPKKIKGSSPGIQDTLEAEDGAFETDEAPEDRILSCRKAGSIMREGRDRVVNLAVDKTGRILACHGTDSVLELFCILSKKEIQKKMDKKMKKARKKAKLHSSKGEEEDPEVNVEMSLQDEIQRVTNIKTSAKIKSFDLIHSPHGELKAVFLLQNNLVELYSLNPSLPTPQPVRTSRITIGGHRSDVRTLSFSSDNIAVLSAAADSIKIWNRSTLQCIRTMTCEYALCSFFVPGDRQVVIGTKTGKLQLYDLASGNLLETIDAHDGALWSMSLSPDQRGFVTGGADKSVKFWDFELVKDENSTQKRLSVKQTRTLQLDEDVLCVSYSPNQKLLAVSLLDCTVKIFYVDTLKFFLSLYGHKLPVICMDISHDGALIATGSADRNVKIWGLDFGDCHKSLFAHDDSVMYLQFVPKSHLFFTAGKDHKIKQWDADKFEHIQTLEGHHQEIWCLAVSPSGDYVVSSSHDKSLRLWERTREPLILEEEREMEREAEYEESVAKEDQPAVPGETQGDSYFTGKKTIETVKAAERIMEAIELYREETAKMKEHKAICKAAGKEVPLPSNPILMAYGSISPSAYVLEIFKGIKSSELEESLLVLPFSYVPDILKLFNEFIQLGSDVELICRCLFFLLRIHFGQITSNQMLVPVIEKLRETTISKVSQVRDVIGFNMAGLDYLKRECEAKSEVMFFADATSHLEEKKRKRKKREKLILTLT
# B5: WD repeat-containing protein 43 (protein, UniProt Q15061 1-677)
# chain: MAAGGGGSCDPLAPAGVPCAFSPHSQAYFALASTDGHLRVWETANNRLHQEYVPSAHLSGTCTCLAWAPARLQAKESPQRKKRKSEAVGMSNQTDLLALGTAVGSILLYSTVKGELHSKLISGGHDNRVNCIQWHQDSGCLYSCSDDKHIVEWNVQTCKVKCKWKGDNSSVSSLCISPDGKMLLSAGRTIKLWVLETKEVYRHFTGHATPVSSLMFTTIRPPNESQPFDGITGLYFLSGAVHDRLLNVWQVRSENKEKSAVMSFTVTDEPVYIDLTLSENKEEPVKLAVVCRDGQVHLFEHILNGYCKKPLTSNCTIQIATPGKGKKSTPKPIPILAAGFCSDKMSLLLVYGSWFQPTIERVALNSREPHMCLVRDISNCWAPKVETAITKVRTPVMNSEAKVLVPGIPGHHAAIKPAPPQTEQVESKRKSGGNEVSIEERLGAMDIDTHKKGKEDLQTNSFPVLLTQGLESNDFEMLNKVLQTRNVNLIKKTVLRMPLHTIIPLLQELTKRLQGHPNSAVLMVQWLKCVLTVHASYLSTLPDLVPQLGTLYQLMESRVKTFQKLSHLHGKLILLITQVTASEKTKGATSPGQKAKLVYEEESSEEESDDEIADKDSEDNWDEDEEESESEKDEDVEEEDEDAEGKDEENGEDRDTASEKELNGDSDLDPENESEEE
# B6: Probable ATP-dependent RNA helicase DDX27 (protein, UniProt Q96GQ7 1-765)
# chain: MLADLGLIGTIGEDDEVPVEPESDSGDEEEEGPIVLGRRQKALGKNRSADFNPDFVFTEKEGTYDGSWALADVMSQLKKKRAATTLDEKIEKVRKKRKTEDKEAKSGKLEKEKEAKEGSEPKEQEDLQENDEEGSEDEASETDYSSADENILTKADTLKVKDRKKKKKKGQEAGGFFEDASQYDENLSFQDMNLSRPLLKAITAMGFKQPTPIQKACIPVGLLGKDICACAATGTGKTAAFALPVLERLIYKPRQAPVTRVLVLVPTRELGIQVHSVTRQLAQFCNITTCLAVGGLDVKSQEAALRAAPDILIATPGRLIDHLHNCPSFHLSSIEVLILDEADRMLDEYFEEQMKEIIRMCSHHRQTMLFSATMTDEVKDLASVSLKNPVRIFVNSNTDVAPFLRQEFIRIRPNREGDREAIVAALLTRTFTDHVMLFTQTKKQAHRMHILLGLMGLQVGELHGNLSQTQRLEALRRFKDEQIDILVATDVAARGLDIEGVKTVINFTMPNTIKHYVHRVGRTARAGRAGRSVSLVGEDERKMLKEIVKAAKAPVKARILPQDVILKFRDKIEKMEKDVYAVLQLEAEEKEMQQSEAQINTAKRLLEKGKEAVVQEPERSWFQTKEERKKEKIAKALQEFDLALRGKKKRKKFMKDAKKKGEMTAEERSQFEILKAQMFAERLAKRNRRAKRARAMPEEEPVRGPAKKQKQGKKSVFDEELTNTSKKALKQYRAGPSFEERKQLGLPHQRRGGNFKSKSRYKRRK
# B7: WD repeat-containing protein 46 (protein, UniProt O15213 1-610)
# chain: METAPKPGKDVPPKKDKLQTKRKKPRRYWEEETVPTTAGASPGPPRNKKNRELRPQRPKNAYILKKSRISKKPQVPKKPREWKNPESQRGLSGTQDPFPGPAPVPVEVVQKFCRIDKSRKLPHSKAKTRSRLEVAEAEEEETSIKAARSELLLAEEPGFLEGEDGEDTAKICQADIVEAVDIASAAKHFDLNLRQFGPYRLNYSRTGRHLAFGGRRGHVAALDWVTKKLMCEINVMEAVRDIRFLHSEALLAVAQNRWLHIYDNQGIELHCIRRCDRVTRLEFLPFHFLLATASETGFLTYLDVSVGKIVAALNARAGRLDVMSQNPYNAVIHLGHSNGTVSLWSPAMKEPLAKILCHRGGVRAVAVDSTGTYMATSGLDHQLKIFDLRGTYQPLSTRTLPHGAGHLAFSQRGLLVAGMGDVVNIWAGQGKASPPSLEQPYLTHRLSGPVHGLQFCPFEDVLGVGHTGGITSMLVPGAGEPNFDGLESNPYRSRKQRQEWEVKALLEKVPAELICLDPRALAEVDVISLEQGKKEQIERLGYDPQAKAPFQPKPKQKGRSSTASLVKRKRKVMDEEHRDKVRQSLQQQHHKEAKAKPTGARPSALDRFVR
# B8: WD repeat-containing protein 74 (protein, UniProt Q6RFH5 1-385)
# chain: MAAAAARWNHVWVGTETGILKGVNLQRKQAANFTAGGQPRREEAVSALCWGTGGETQMLVGCADRTVKHFSTEDGIFQGQRHCPGGEGMFRGLAQADGTLITCVDSGILRVWHDKDKDTSSDPLLELRVGPGVCRMRQDPAHPHVVATGGKENALKIWDLQGSEEPVFRAKNVRNDWLDLRVPIWDQDIQFLPGSQKLVTCTGYHQVRVYDPASPQRRPVLETTYGEYPLTAMTLTPGGNSVIVGNTHGQLAEIDLRQGRLLGCLKGLAGSVRGLQCHPSKPLLASCGLDRVLRIHRIQNPRGLEHKVYLKSQLNCLLLSGRDNWEDEPQEPQEPNKVPLEDTETDELWASLEAAAKRKLSGLEQPQGALQTRRRKKKRPGSTSP
# B9: WD repeat-containing protein 75 (protein, UniProt Q8IWA0 1-830)
# chain: MVEEENIRVVRCGGSELNFRRAVFSADSKYIFCVSGDFVKVYSTVTEECVHILHGHRNLVTGIQLNPNNHLQLYSCSLDGTIKLWDYIDGILIKTFIVGCKLHALFTLAQAEDSVFVIVNKEKPDIFQLVSVKLPKSSSQEVEAKELSFVLDYINQSPKCIAFGNEGVYVAAVREFYLSVYFFKKKTTSRFTLSSSRNKKHAKNNFTCVACHPTEDCIASGHMDGKIRLWRNFYDDKKYTYTCLHWHHDMVMDLAFSVTGTSLLSGGRESVLVEWRDATEKNKEFLPRLGATIEHISVSPAGDLFCTSHSDNKIIIIHRNLEASAVIQGLVKDRSIFTGLMIDPRTKALVLNGKPGHLQFYSLQSDKQLYNLDIIQQEYINDYGLIQIELTKAAFGCFGNWLATVEQRQEKETELELQMKLWMYNKKTQGFILNTKINMPHEDCITALCFCNAEKSEQPTLVTASKDGYFKVWILTDDSDIYKKAVGWTCDFVGSYHKYQATNCCFSEDGSLLAVSFEEIVTIWDSVTWELKCTFCQRAGKIRHLCFGRLTCSKYLLGATENGILCCWNLLSCALEWNAKLNVRVMEPDPNSENIAAISQSSVGSDLFVFKPSEPRPLYIQKGISREKVQWGVFVPRDVPESFTSEAYQWLNRSQFYFLTKSQSLLTFSTKSPEEKLTPTSKQLLAEESLPTTPFYFILGKHRQQQDEKLNETLENELVQLPLTENIPAISELLHTPAHVLPSAAFLCSMFVNSLLLSKETKSAKEIPEDVDMEEEKESEDSDEENDFTEKVQDTSNTGLGEDIIHQLSKSEEKELRKFRKIDYSWIAAL
# Target: Influenza A virus non-structural protein 1 (NS1), strain A/Puerto Rico/8/1934(H1N1) (Influenza A virus A/Puerto Rico/8/1934(H1N1)) (UniProt P03496)
# Test: affinity purification with mass spectrometry
row,Binder,binding
1,B1,binds
2,B2,binds
3,B3,binds
4,B4,binds
5,B5,binds
6,B6,binds
7,B7,binds
8,B8,binds
9,B9,binds

# From paper PMC6316800
